Test results: PubChem BioAssay AID330 (DTP/NCI, 2004)
The list is a part of this screen's results and no random one: it gathers tests that were run many times, whatever their T/C, doses with no T/C, and many T/C values between a quarter and a half above the control. Further doses and runs are listed elsewhere. T/C gives the treated animals as a percentage of the vehicle group. Some entries give survivors of the animals treated and no T/C: the source holds a T/C of zero for them, seemingly a mark for toxic or unscored doses. Some doses without a T/C left all or most animals alive at the check, yet need not have been tolerated: the source hardly ever lists a survival T/C far under the control, and the zero likely stands for such cases as well. Counts of survivors are from the toxicity check (mostly the fifth day) where no day follows; animals may have died later. Schedules are NCI's codes, taken here to give the interval after Q, in days (D) or hours (H), and the number of doses after X. Some entries hold several experiments; the values are given in rising order. Where survival is the endpoint, this PubChem deposit counts one and a half times the control or more as active, and values a quarter to a half above the control carry no call in these data; other NCI protocols may use other cut-offs.

Tested on: P388 leukemia ip, CD2F1 mice, survival T/C
Assay: NCI In Vivo Anticancer Drug Screen. Data for tumor model P388 Leukemia (intraperitoneal) in CD2F1 (CDF1) mice
Settings: T/C endpoint: median survival time, higher T/C = longer survival
[1] = dose: 120.0 mg/kg/injection, schedule: Q01DX005 (ip), vehicle: saline with Tween-80
[2] = dose: 240.0 mg/kg/injection, schedule: Q01DX005 (ip), vehicle: saline with Tween-80
[3] = dose: 200.0 mg/kg/injection, schedule: Q04DX003 (ip), vehicle: Klucel (hydroxypropylcellulose) (HPC)

CN1C(=O)C=CC1=O
survivor count (dose: 8.0 mg/kg/injection, schedule: Q01DX009 (ip), vehicle: saline): 0 of 6

CC1=C2CC(C)(C)/C=C\C(=O)/C(C)=C\C3=CC(C)(O)CC3(O2)C1=O (stereo not given)
survivor count (dose: 20.0 mg/kg/injection, schedule: Q01DX009 (ip), vehicle: Klucel (hydroxypropylcellulose) (HPC)): 2 of 6

CCCCOc1cc(C(=O)NCCN(C)C)c2ccccc2n1
survivor count (dose: 60.0 mg/kg/injection, schedule: Q01DX005 (ip), vehicle: saline with Tween-80): 0 of 6
survivor count [1]: 0 of 6
survivor count [2]: 0 of 6

Oc1ccccc1-c1cc(-c2ccccc2)nc(NCCCCCCNc2nc(-c3ccccc3)cc(-c3ccccc3O)n2)n1
survivor count (dose: 200.0 mg/kg/injection, schedule: Q01DX005 (ip), vehicle: Klucel (hydroxypropylcellulose) (HPC)): 3 of 6

O=C1c2ccccc2C(O)(C#Cc2ccccc2)c2c1oc1c2ccc2ccccc21 (stereo not given)
survivor count (dose: 50.0 mg/kg/injection, schedule: Q01DX009 (ip), vehicle: saline with Tween-80): 6 of 6
survivor count (dose: 200.0 mg/kg/injection, schedule: Q01DX009 (ip), vehicle: saline with Tween-80): 6 of 6

O=NNc1ncc(Br)cc1Br
T/C (dose: 12.5 mg/kg/injection, schedule: Q01DX009 (ip), vehicle: water): 147 % of control
T/C (dose: 25.0 mg/kg/injection, schedule: Q01DX005 (ip), vehicle: water): 128, 129, 147 % of control
T/C (dose: 25.0 mg/kg/injection, schedule: Q01DX009 (ip), vehicle: water): 144 % of control
T/C (dose: 50.0 mg/kg/injection, schedule: Q01DX005 (ip), vehicle: water): 144 % of control
T/C (dose: 50.0 mg/kg/injection, schedule: Q01DX009 (ip), vehicle: water): 142 % of control
survivor count (dose: 200.0 mg/kg/injection, schedule: Q01DX005 (ip), vehicle: water): 5 of 6 and 6 of 6
survivor count (dose: 400.0 mg/kg/injection, schedule: Q01DX005 (ip), vehicle: water): 0 of 6

Cc1ccnc2cc(N(C)C)ccc12
survivor count (dose: 120.0 mg/kg/injection, schedule: Q01DX005 (ip), vehicle: Klucel (hydroxypropylcellulose) (HPC)): 0 of 6
survivor count (dose: 240.0 mg/kg/injection, schedule: Q01DX005 (ip), vehicle: Klucel (hydroxypropylcellulose) (HPC)): 0 of 6

N#Cc1[nH]ncc1[N+](=O)[O-]
survivor count (dose: 100.0 mg/kg/injection, schedule: Q01DX001 (ip), vehicle: saline with Tween-80): 0 of 6
survivor count (dose: 200.0 mg/kg/injection, schedule: Q01DX001 (ip), vehicle: saline with Tween-80): 0 of 6
survivor count (dose: 400.0 mg/kg/injection, schedule: Q01DX001 (ip), vehicle: saline with Tween-80): 0 of 6

Cn1cccc/c1=N\N
survivor count (dose: 400.0 mg/kg/injection, schedule: Q04DX002 (ip), vehicle: saline): 1 of 6

CCOC(=O)Nc1cc2c(c(N)n1)N=C(c1ccc(C)cc1C)CN2
T/C (dose: 10.0 mg/kg/injection, schedule: Q01DX005 (ip), vehicle: saline with Tween-80): 131 % of control
T/C (dose: 13.0 mg/kg/injection, schedule: Q01DX005 (ip), vehicle: saline with Tween-80): 134 % of control
T/C (dose: 20.0 mg/kg/injection, schedule: Q01DX005 (ip), vehicle: saline with Tween-80): 136 % of control
T/C (dose: 30.0 mg/kg/injection, schedule: Q01DX005 (ip), vehicle: saline with Tween-80): 145 % of control

CCCN=Cc1cc(Cc2ccc(O)c(C=NCCC)c2)ccc1O
T/C [3]: 126 % of control
survivor count [3]: 2 of 6
survivor count (dose: 400.0 mg/kg/injection, schedule: Q04DX003 (ip), vehicle: Klucel (hydroxypropylcellulose) (HPC)): 1 of 6

CN1C(Cl)=NS(=O)(=O)c2ccccc21
survivor count [1]: 0 of 6
survivor count [2]: 0 of 6
